# This is one part of the list.
# B1: CD34 (Homo sapiens), P28906 (protein)
# chain: MGSSHHHHHHSSGLVPRGSHMSTSLATSPTKPYTSSSPILSDIKAEIKCSGIREVKLTQGICLEQNKTSSCAEFKKDRGEGLARVLCGEEQADADAGAQVCSLLLAQSEVRPQCLLLVLANRTEISSKLQLMKKHQSDLKKLGILDFTEQDVASHQSYSQKT
# Experiments:
# Assay in all cases: glycan array binding signal (z-score within array); higher = stronger binding
# Conditions in all cases: glycan notation: IUPAC condensed, linker removed
# [1] = molecular target: Gal3S(b1-3)[Fuc(a1-4)]GlcNAc
# How it was run: (§1)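 The Consortium for Functional Glycomics database supplied 3228 glycan arrays, of which those lacking an available protein sequence were dropped. The binding signal, a within-array Z-score, was averaged across arrays of the same protein sequence and across linkers. Negative scores can be read as non-binding.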
# Gal3S(b1-4)Glc = molecular target: Gal3S(b1-4)Glc
# How it was run: as §1
# Gal3S(b1-4)Glc6S = molecular target: Gal3S(b1-4)Glc6S
# How it was run: as §1
# Gal3S(b1-4)GlcNAc = molecular target: Gal3S(b1-4)GlcNAc
# How it was run: as §1
# [2] = molecular target: Gal3S(b1-4)[Fuc(a1-3)]Glc6S
# How it was run: as §1
# [3] = molecular target: Gal3S(b1-4)[Fuc(a1-3)]GlcNAc
# How it was run: as §1
# [4] = molecular target: Gal3S(b1-4)[Fuc(a1-3)]GlcNAc6S
# How it was run: as §1
# Gal3S4S(b1-4)GlcNAc = molecular target: Gal3S4S(b1-4)GlcNAc
# How it was run: as §1
# Gal3S6S(b1-4)GlcNAc = molecular target: Gal3S6S(b1-4)GlcNAc
# How it was run: as §1
# Gal3S6S(b1-4)GlcNAc6S = molecular target: Gal3S6S(b1-4)GlcNAc6S
# How it was run: as §1
# Gal4S(b1-4)GlcNAc = molecular target: Gal4S(b1-4)GlcNAc
# How it was run: as §1
# Gal4S6S(b1-4)GlcNAc = molecular target: Gal4S6S(b1-4)GlcNAc
# How it was run: as §1
# Gal6P(b1-4)GlcNAc = molecular target: Gal6P(b1-4)GlcNAc
# How it was run: as §1
# Gal6S(b1-3)GlcNAc = molecular target: Gal6S(b1-3)GlcNAc
# How it was run: as §1
# Gal6S(b1-3)GlcNAc6S = molecular target: Gal6S(b1-3)GlcNAc6S
# How it was run: as §1
# Gal6S(b1-4)Glc = molecular target: Gal6S(b1-4)Glc
# How it was run: as §1
# Gal6S(b1-4)Glc6S = molecular target: Gal6S(b1-4)Glc6S
# How it was run: as §1
# Gal6S(b1-4)GlcNAc = molecular target: Gal6S(b1-4)GlcNAc
# How it was run: as §1
# Gal6S(b1-4)GlcNAc6S = molecular target: Gal6S(b1-4)GlcNAc6S
# How it was run: as §1
# GalNAc(a1-3)Gal = molecular target: GalNAc(a1-3)Gal
# How it was run: as §1
# GalNAc(a1-3)GalNAc = molecular target: GalNAc(a1-3)GalNAc
# How it was run: as §1
# [5] = molecular target: GalNAc(a1-3)GalNAc(b1-3)Gal(a1-4)Gal(b1-4)Glc
# How it was run: as §1
# [6] = molecular target: GalNAc(a1-3)GalNAc(b1-3)Gal(a1-4)Gal(b1-4)GlcNAc
# How it was run: as §1
# GalNAc(b1-3)Gal = molecular target: GalNAc(b1-3)Gal
# How it was run: as §1
# [7] = molecular target: GalNAc(b1-3)Gal(a1-4)Gal(b1-4)GlcNAc
# How it was run: as §1
# [8] = molecular target: GalNAc(b1-3)Gal(a1-4)Gal(b1-4)GlcNAc(b1-3)Gal(b1-4)Glc
# How it was run: as §1
# [9] = molecular target: GalNAc(b1-3)Gal(a1-6)Gal(b1-4)Glc
# How it was run: as §1
# GalNAc(b1-3)GalNAc = molecular target: GalNAc(b1-3)GalNAc
# How it was run: as §1
# GalNAc(b1-3)GlcNAc = molecular target: GalNAc(b1-3)GlcNAc
# How it was run: as §1
# GalNAc(b1-4)Gal(b1-4)Glc = molecular target: GalNAc(b1-4)Gal(b1-4)Glc
# How it was run: as §1
# GalNAc(b1-4)GlcNAc = molecular target: GalNAc(b1-4)GlcNAc
# How it was run: as §1
# [10] = molecular target: GalNAc(b1-4)GlcNAc(b1-2)Man
# How it was run: as §1
# [11] = molecular target: GalNAc(b1-4)GlcNAc(b1-2)Man(a1-3)[GalNAc(b1-4)GlcNAc(b1-2)Man(a1-6)]Man(b1-4)GlcNAc(b1-4)GlcNAc
# How it was run: as §1
# [12] = molecular target: GalNAc(b1-4)GlcNAc(b1-3)GalNAc(b1-4)GlcNAc
# How it was run: as §1
# GalNAc(b1-4)GlcNAc6S = molecular target: GalNAc(b1-4)GlcNAc6S
# How it was run: as §1
# GalNAc(b1-6)GalNAc = molecular target: GalNAc(b1-6)GalNAc
# How it was run: as §1
# GalNAc3S(b1-4)GlcNAc = molecular target: GalNAc3S(b1-4)GlcNAc
# How it was run: as §1
# GalNAc3S(b1-4)GlcNAc3S = molecular target: GalNAc3S(b1-4)GlcNAc3S
# How it was run: as §1
# [13] = molecular target: GalNAc3S(b1-4)[Fuc(a1-3)]GlcNAc
# How it was run: as §1
# GalNAc4S6S(b1-4)GlcNAc = molecular target: GalNAc4S6S(b1-4)GlcNAc
# How it was run: as §1
# GalNAc6S(b1-4)GlcNAc = molecular target: GalNAc6S(b1-4)GlcNAc
# How it was run: as §1
# Glc(a1-4)Glc = molecular target: Glc(a1-4)Glc
# How it was run: as §1
# [14] = molecular target: Glc(a1-4)Glc(a1-4)Glc(a1-4)Glc
# How it was run: as §1
# Glc(a1-6)Glc(a1-6)Glc = molecular target: Glc(a1-6)Glc(a1-6)Glc
# How it was run: as §1
# [15] = molecular target: Glc(a1-6)Glc(a1-6)Glc(a1-6)Glc
# How it was run: as §1
binder,measurement,setting,value
B1,glycan array binding signal (z-score),[1],1.34
same,glycan array binding signal (z-score),Gal3S(b1-4)Glc,1.83
same,glycan array binding signal (z-score),Gal3S(b1-4)Glc6S,-0.078
same,glycan array binding signal (z-score),Gal3S(b1-4)GlcNAc,-0.601
same,glycan array binding signal (z-score),[2],0.197
same,glycan array binding signal (z-score),[3],0.867
same,glycan array binding signal (z-score),[4],1.44
same,glycan array binding signal (z-score),Gal3S4S(b1-4)GlcNAc,0.677
same,glycan array binding signal (z-score),Gal3S6S(b1-4)GlcNAc,0.324
same,glycan array binding signal (z-score),Gal3S6S(b1-4)GlcNAc6S,1.42
same,glycan array binding signal (z-score),Gal4S(b1-4)GlcNAc,-0.517
same,glycan array binding signal (z-score),Gal4S6S(b1-4)GlcNAc,-0.533
same,glycan array binding signal (z-score),Gal6P(b1-4)GlcNAc,0.361
same,glycan array binding signal (z-score),Gal6S(b1-3)GlcNAc,0.224
same,glycan array binding signal (z-score),Gal6S(b1-3)GlcNAc6S,0.99
same,glycan array binding signal (z-score),Gal6S(b1-4)Glc,-0.308
same,glycan array binding signal (z-score),Gal6S(b1-4)Glc6S,1.08
same,glycan array binding signal (z-score),Gal6S(b1-4)GlcNAc,-0.141
same,glycan array binding signal (z-score),Gal6S(b1-4)GlcNAc6S,0.547
same,glycan array binding signal (z-score),GalNAc(a1-3)Gal,-0.188
same,glycan array binding signal (z-score),GalNAc(a1-3)GalNAc,0.105
same,glycan array binding signal (z-score),[5],-0.941
same,glycan array binding signal (z-score),[6],-0.204
same,glycan array binding signal (z-score),GalNAc(b1-3)Gal,1.82
same,glycan array binding signal (z-score),[7],-0.476
same,glycan array binding signal (z-score),[8],0.257
same,glycan array binding signal (z-score),[9],-1.07
same,glycan array binding signal (z-score),GalNAc(b1-3)GalNAc,-0.525
same,glycan array binding signal (z-score),GalNAc(b1-3)GlcNAc,-0.213
same,glycan array binding signal (z-score),GalNAc(b1-4)Gal(b1-4)Glc,-0.6
same,glycan array binding signal (z-score),GalNAc(b1-4)GlcNAc,-0.172
same,glycan array binding signal (z-score),[10],-0.65
same,glycan array binding signal (z-score),[11],-0.615
same,glycan array binding signal (z-score),[12],0.667
same,glycan array binding signal (z-score),GalNAc(b1-4)GlcNAc6S,-0.047
same,glycan array binding signal (z-score),GalNAc(b1-6)GalNAc,-0.392
same,glycan array binding signal (z-score),GalNAc3S(b1-4)GlcNAc,0.416
same,glycan array binding signal (z-score),GalNAc3S(b1-4)GlcNAc3S,1.63
same,glycan array binding signal (z-score),[13],0.211
same,glycan array binding signal (z-score),GalNAc4S6S(b1-4)GlcNAc,1.06
same,glycan array binding signal (z-score),GalNAc6S(b1-4)GlcNAc,-0.025
same,glycan array binding signal (z-score),Glc(a1-4)Glc,0.397
same,glycan array binding signal (z-score),[14],0.136
same,glycan array binding signal (z-score),Glc(a1-6)Glc(a1-6)Glc,-0.373
same,glycan array binding signal (z-score),[15],0.615

# A section from further up:
binder,measurement,setting,value
B1,glycan array binding signal (z-score),[2],0.197
same,glycan array binding signal (z-score),[3],0.867

# — the supplement of paper PMC8728848
